Results reported in US20100016408A1 (NEW YORK UNIVERSITY, published 2010).
No constants are given. Whether binding was seen depends on the method and setting. In cells and extracts the contact can be indirect. Some binding calls cover weakened binding; strength is not graded here. For some assays here: Sequences can lack the tags named with a protein.

Sequences of proteins named here, by UniProt entry; tags and fusion partners are left off. A change or cut given only in a name is not applied to a line headed by its entry.
UniProt Q9HAW4: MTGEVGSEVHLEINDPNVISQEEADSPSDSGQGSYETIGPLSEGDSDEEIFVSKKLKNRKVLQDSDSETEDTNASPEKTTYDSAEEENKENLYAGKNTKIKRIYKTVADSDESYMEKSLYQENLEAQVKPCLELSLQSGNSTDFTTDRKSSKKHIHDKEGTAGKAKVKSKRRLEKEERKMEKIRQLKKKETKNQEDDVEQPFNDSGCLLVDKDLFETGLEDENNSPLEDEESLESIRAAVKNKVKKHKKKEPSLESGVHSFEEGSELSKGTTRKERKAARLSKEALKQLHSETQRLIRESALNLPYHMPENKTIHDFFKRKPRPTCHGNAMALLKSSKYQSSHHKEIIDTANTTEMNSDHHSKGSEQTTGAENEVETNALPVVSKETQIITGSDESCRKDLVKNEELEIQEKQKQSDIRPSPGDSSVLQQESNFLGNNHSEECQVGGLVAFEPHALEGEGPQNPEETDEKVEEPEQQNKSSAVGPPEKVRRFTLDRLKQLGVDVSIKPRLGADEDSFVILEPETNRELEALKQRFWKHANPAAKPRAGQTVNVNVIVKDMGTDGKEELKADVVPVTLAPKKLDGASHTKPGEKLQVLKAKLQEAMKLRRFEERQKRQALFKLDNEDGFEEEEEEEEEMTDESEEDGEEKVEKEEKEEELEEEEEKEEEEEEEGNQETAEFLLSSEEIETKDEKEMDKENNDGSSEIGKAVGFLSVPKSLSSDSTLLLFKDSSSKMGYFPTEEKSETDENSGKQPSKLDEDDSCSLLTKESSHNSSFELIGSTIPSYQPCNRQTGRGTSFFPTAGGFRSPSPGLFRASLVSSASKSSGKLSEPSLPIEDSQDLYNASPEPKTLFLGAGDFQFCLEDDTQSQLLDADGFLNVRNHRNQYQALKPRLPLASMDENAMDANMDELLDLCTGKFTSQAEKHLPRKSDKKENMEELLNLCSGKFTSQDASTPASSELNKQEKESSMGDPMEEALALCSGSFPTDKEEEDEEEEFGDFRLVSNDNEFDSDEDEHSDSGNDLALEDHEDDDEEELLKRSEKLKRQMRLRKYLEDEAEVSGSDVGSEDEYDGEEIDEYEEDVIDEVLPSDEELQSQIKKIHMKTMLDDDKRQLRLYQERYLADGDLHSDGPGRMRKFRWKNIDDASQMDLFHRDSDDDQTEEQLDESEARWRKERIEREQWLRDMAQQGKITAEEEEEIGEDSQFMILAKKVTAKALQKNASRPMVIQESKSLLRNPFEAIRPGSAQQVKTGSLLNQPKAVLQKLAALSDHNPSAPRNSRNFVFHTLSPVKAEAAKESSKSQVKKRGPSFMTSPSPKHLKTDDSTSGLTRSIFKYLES
UniProt Q9UM11: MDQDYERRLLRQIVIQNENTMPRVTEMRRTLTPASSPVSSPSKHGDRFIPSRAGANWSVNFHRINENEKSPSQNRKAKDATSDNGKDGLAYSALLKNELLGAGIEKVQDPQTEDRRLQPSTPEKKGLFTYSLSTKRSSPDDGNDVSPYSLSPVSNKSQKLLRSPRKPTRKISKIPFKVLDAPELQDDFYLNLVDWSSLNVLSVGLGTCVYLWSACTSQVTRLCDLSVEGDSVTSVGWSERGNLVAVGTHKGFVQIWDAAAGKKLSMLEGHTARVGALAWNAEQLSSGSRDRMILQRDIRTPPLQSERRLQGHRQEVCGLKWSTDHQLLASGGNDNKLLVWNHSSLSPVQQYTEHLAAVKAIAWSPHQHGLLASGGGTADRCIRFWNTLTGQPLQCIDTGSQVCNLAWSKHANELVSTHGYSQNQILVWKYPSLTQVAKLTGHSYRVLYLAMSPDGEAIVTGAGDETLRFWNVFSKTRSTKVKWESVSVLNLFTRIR

B1: FLAG-tagged Cdc14B (enzyme, not shown: small tags and cut ends)
chain: MKRKSERRSSWAAAPPCSRRCSSTSPGVKKIRSSTQQDPRRRDPQDDVYLDITDRLCFAILYSRPKSASNVHYFSIDNELEYENFYADFGPLNLAMVYRYCCKINKKLKSITMLRKKIVHFTGSDQRKQANAAFLVGCYMVIYLGRTPEEAYRILIFGETSYIPFRDAAYGSCNFYITLLDCFHAVKKAMQYGFLNFNSFNLDEYEHYEKAENGDLNWIIPDRFIAFCGPHSRARLESGYHQHSPETYIQYFKNHNVTTIIRLNKRMYDAKRFTDAGFDHHDLFFADGSTPTDAIVKEFLDICENAEGAIAVHCKAGLGRTGTLIACYIMKHYRMTAAETIAWVRICRPGSVIGPQQQFLVMKQTNLWLEGDYFRQKLKGQENGQHRAAFSKLLSGVDDISINGVENQDQQEPEPYSDDDEINGVTQGDRLRALKSRRQSKTNAIPLTLSISRTKTVLR

Columns and labels:
Claspin = molecular target: T1, Claspin (human, UniProt Q9HAW4 1-1339); assay: co-immunoprecipitation with anti-FLAG resin from HEK293T cells, immunoblot (FIG. 2A)
T1 construct: also called endogenous Claspin; wild type Claspin

Cdh1 (human) [1] = molecular target: Cdh1 (human) (UniProt Q9UM11); assay: co-immunoprecipitation from G2 U2OS cells, immunoblot (FIG. 11F)
Cdh1 (human) [2] = molecular target: Cdh1 (human) (UniProt Q9UM11); assay: co-immunoprecipitation from G2 U2OS cells with or without doxorubicin, immunoblot (FIG. 11F)
Cdh1 (human) [3] = molecular target: Cdh1 (human) (UniProt Q9UM11); assay: co-immunoprecipitation from G2 U2OS cells, immunoblot (FIGS. 11-13)
Cdh1 (human) [4] = molecular target: Cdh1 (human) (UniProt Q9UM11); assay: co-immunoprecipitation with anti-FLAG resin from G2 U2OS cells after doxorubicin, immunoblot (FIG. 11F)

Row | Molecule | binding (Claspin) | binding (Cdh1 (human) [1]) | binding (Cdh1 (human) [2]) | binding (Cdh1 (human) [3]) | binding (Cdh1 (human) [4])
1 | FLAG-tagged Cdh1 (from UniProt Q9UM11 1-496) | binds | – | – | – | –
2 | B1 | – | binds | binds | binds | binds
